Experimental data: article PMC4621509
No constants are given. Whether binding was seen depends on the method and setting. Binding seen in cells or lysates may run through a third protein. Some results given as binding are weak or reduced against the parent protein; the word gives no strength. Tags and fused reporters may be left off the sequences shown.

Target: T1, HA-Dyn2 (wild type dynamin2) (UniProt P50570)
T1 sequence: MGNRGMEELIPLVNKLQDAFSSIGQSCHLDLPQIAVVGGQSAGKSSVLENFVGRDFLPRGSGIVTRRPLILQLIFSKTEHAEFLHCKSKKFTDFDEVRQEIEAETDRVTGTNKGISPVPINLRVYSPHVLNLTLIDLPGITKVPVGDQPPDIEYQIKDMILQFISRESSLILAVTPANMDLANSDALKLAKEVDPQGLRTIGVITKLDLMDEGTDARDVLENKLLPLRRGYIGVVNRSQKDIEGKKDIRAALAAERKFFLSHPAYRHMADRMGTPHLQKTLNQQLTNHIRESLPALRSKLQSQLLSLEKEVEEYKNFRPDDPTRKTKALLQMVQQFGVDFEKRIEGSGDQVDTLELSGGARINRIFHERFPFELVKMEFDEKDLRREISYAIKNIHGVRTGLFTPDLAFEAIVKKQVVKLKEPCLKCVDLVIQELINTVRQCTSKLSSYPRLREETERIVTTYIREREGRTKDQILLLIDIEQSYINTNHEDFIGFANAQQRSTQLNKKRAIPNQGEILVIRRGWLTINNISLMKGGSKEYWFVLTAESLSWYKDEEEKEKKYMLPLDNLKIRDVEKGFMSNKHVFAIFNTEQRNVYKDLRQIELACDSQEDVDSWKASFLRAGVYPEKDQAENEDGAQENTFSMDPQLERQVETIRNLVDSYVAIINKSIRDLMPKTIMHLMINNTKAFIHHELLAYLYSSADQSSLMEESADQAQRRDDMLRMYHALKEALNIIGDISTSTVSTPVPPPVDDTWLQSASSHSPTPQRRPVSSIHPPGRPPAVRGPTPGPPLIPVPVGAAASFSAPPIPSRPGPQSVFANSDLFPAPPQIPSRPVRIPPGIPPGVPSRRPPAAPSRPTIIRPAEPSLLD
Assay: co-IP; Flag-EFA6B and HA-Dyn2 coexpressed in HEK293T cells (48 hr) together with mCherry-N1cβγ or mCherry-N2 (186-226); immunoprecipitation with anti-Flag antibody beads; coimmunoprecipitated Dyn2 blotted with anti-HA

binding: binds
Binder: KQNRSTSTQVVFWAGILQAQMCVLDLEEELEKTEGLKAGLK (peptide, UniProt Q8NDX1 145-185) [mCherry-N1cβγ peptide of EFA6B (amino acids 145-185)]
